Data on 65 substances can be found in the supplement of paper PMC5949888.

Most values lie at the floor of the assay. Slopes are relative: functional sequences can read slightly below zero. Where only a bound is given, the exact number is not on record here.

This data set has as its system Saccharomyces cerevisiae PS128 hsf1 delta, HSF1(1-493) fusion. As to the kind of experiment: growth estimate (transactivation domain function in HSF1 fusion, heat-shock survival) (a.u. (slope of normalised read count over time)); higher = stronger growth at 37°C, i.e. more transactivation activity. As to conditions: library: random library.
For the substance NYAPS, the growth estimate is below -0.25.

On to MGI, for which the growth estimate is below -0.25.

With SRVTEVGGPFWGLAWSARML, the growth estimate is below -0.25.

As for RVKSWISFHNEIGVGPLAYF, the growth estimate was below -0.25.

Consider EAQFGICRQGSV, for which the growth estimate is below -0.25.

Turning to LAILEVAFPTARNVAEFRVA, the growth estimate is below -0.25.

Turning to CSGC, the growth estimate is below -0.25.

SRFMRSG: the growth estimate was below -0.25.

GGPALVLYFCSRPGQTPRSS: the growth estimate is below -0.25.

Turning to HCPLWR, the growth estimate was below -0.25.

In the case of TEHTLWQVLVGAGGKMTGEG, the growth estimate was below -0.25.

As to VTEQSFSKERRKMS, the growth estimate was below -0.25.

Take KRGGVPGGPYILT: the growth estimate was below -0.25.

Consider PRSPFKGGFGIRRRSATC, for which the growth estimate was below -0.25.

On to CQEICCGIRAPTPVGTAAEC, for which the growth estimate is below -0.25.

CGFKKVFRRNASSIQRVIG: the growth estimate was below -0.25.

Take LRTY: the growth estimate is below -0.25.

For RRERDPIIRARTISTSNLRR, the growth estimate was below -0.25.

In the case of MRD, the growth estimate was below -0.25.

As for WDKLAT, the growth estimate was below -0.25.

For the substance RSWNS, the growth estimate is below -0.25.

For PSDSCYGT, the growth estimate is below -0.25.

Consider TVFIGVGDSIGGSMKRWELC, for which the growth estimate was below -0.25.

Consider LFHCFETMLVILWS, for which the growth estimate is below -0.25.

Consider QICPDCFDMPALTCGELLFL, for which the growth estimate is -0.137.

In the case of ESESARHEHQANTRIHVIKD, the growth estimate was below -0.25.

As to LWIPQRFEISD, the growth estimate was below -0.25.

For the substance LPYG, the growth estimate is below -0.253.

SGLEKEQKLSQR: the growth estimate was below -0.25.

For the substance SSYRNDRGAGPRQGQRYIGH, the growth estimate was below -0.25.

As for IFRIPRGARPGWKIVARVRC, the growth estimate was below -0.25.

TRG: the growth estimate is below -0.25.

Take SIEGLAAASPRGTIRSKVC: the growth estimate was below -0.25.

PSKLSVSLPVAAARTTPARK: the growth estimate is below -0.25.

Take SQT: the growth estimate was below -0.25.

In the case of FHLW, the growth estimate is below -0.25.

Take LRVHWR: the growth estimate is below -0.25.

As for AYGGNYSKEGFS, the growth estimate is -0.237.

Take TLITLVGMVALYQLETPAYT: the growth estimate was below -0.25.

Regarding FGDYASG, the growth estimate is below -0.25.

As to TWETICLETGVLEAEVRVPS, the growth estimate is below -0.25.

On to LFSQTFHGSLL, for which the growth estimate was below -0.25.

QPCEGGEHWSIRGA: the growth estimate is below -0.25.

Take SPSVGEG: the growth estimate was below -0.25.

For the substance YTFLLTKRGPAGVPLFNRKC, the growth estimate is below -0.25.

Turning to GMLRINEVHAHGSRGSSVPD, the growth estimate was below -0.25.

In the case of EGNRVASIYLHWLYRALNRR, the growth estimate is below -0.25.

Turning to HHI, the growth estimate is below -0.25.

In the case of WEGLQSRIAHSLIIRFSYTL, the growth estimate was below -0.25.

Consider MHRIDNETLLVIHTLSRILH, for which the growth estimate was below -0.25.

As for CQPEWGSSPLLVSDWGALQK, the growth estimate was below -0.25.

For the substance RHLRWGCCVGSSSPAILLYT, the growth estimate is below -0.25.

ESGWRA: the growth estimate was below -0.25.

As for SEPPASKEDFSRDINVTPVM, the growth estimate was below -0.25.

In the case of NGSPNSRAHSRLLADPDYGQ, the growth estimate was -0.246.

On to QIMALVEAGVH, for which the growth estimate was below -0.25.

On to SIR, for which the growth estimate is below -0.25.

On to QVVGRPILTEQRRRSRINQL, for which the growth estimate was below -0.25.

For SVQSTNDAGGFSGSGVSIGE, the growth estimate was below -0.25.

As to NDCGGRTRKLRG, the growth estimate is -0.245.

For NRQYFQNSGVMRGVLSALYT, the growth estimate was 0.559.

Regarding WVPPKSAYKNLRDDHELVPA, the growth estimate is below -0.25.

With QALEFRGGAGILLELAAIKG, the growth estimate is below -0.25.

Take VIE: the growth estimate is below -0.25.

For the substance DRLELG, the growth estimate is below -0.25.
